From US20240043476A1, “ANTI-TUMOR PEPTIDE AND USE THEREOF” (National University Corporation Hokkaido University, priority 2020, published 2024)
Some of these results come from one statement about several compounds together.

Tested on: human prostate cancer cell line DU145
Test: Inhibition of proliferation of prostate cancer cell line DU145 (CellTiter Glo luminescence)
Assay type: cell-based
Details: DU145 cells; for cell proliferation (without synthetic peptide set to 100): final concentration 30 μM; for cell proliferation (cell proliferation without addition of any synthetic peptide set to 100): peptide 100 μM, 48 hours
Procedure: Human prostate cancer cell line DU145 was cultured in DMEM containing 10% fetal cattle serum (FCS) at 37° C. and 5% CO2 with passaging. DU145 cells were seeded into 96-well plates at 5000 cells/well, then cultured at 37° C. for 24 hours, and then further cultured for 48 hours in 10% FCS-containing DMEM that contains each of the synthesized peptides of Example 1 at a final concentration of 1 μM, 10 μM, 50 μM or 100 μM. The medium was discarded after culturing, and then 25 μL of 50-fold diluted solution of CellTiter Glo Reagent (Promega) (diluted with PBS (−) containing 0.1% NP-40) was added to each well. Next, the resulting solution was shaken at room temperature for 10 minutes, and then luminescence level was measured with a plate reader (Infinite M200, Tecan). A relative luminescence level of each synthetic peptide was calculated when the average luminescence level measured for control cells cultured in 10% FCS-containing DMEM without any synthetic peptide was set to 100, and was used as an index of cell proliferation.
The peptides listed in Table 2 below were designed and evaluated for their inhibitory activities against proliferation of DU145 cells in the same way as in Example 2. Each of the peptides 4T-2-D-1-4, 4H-2-D-1-4 and 4F-2-D-1-4 is a peptide in which the octaarginine sequence of the peptide 42-D-1-4 is substituted with an amino acid sequence of another cell-penetrating peptide, and each has, from the N-terminal side, an amino acid sequence of TAT peptide, HTLV-II-Rex or FHV coat (35-49), a linker sequence of one Gly residue, and an amino acid sequence corresponding to G45-Y51 of the PH domain. The peptides #R8(−)-2-D-1, #R8(−)-2-D-1-4 and #R8(−)-6-A-2 are peptides with the octaarginine sequence and the linker sequence removed from the peptides #2-D-1, #2-D-1-4 and #6-A-2, respectively.
The peptides listed in Table 3 below were designed and evaluated for their inhibitory activities against proliferation of DU145 cells, in the same way as in Example 2 except that the final concentrations of the synthetic peptides were set to 3 μM, 10 μM and 30 μM. The peptides #2-D-1-4-1A to #2-D-1-4-7A are peptides in which GLTIYFY (SEQ ID NO: 36) of peptide #2-D-1-4 was substituted with Ala one by one from the N-terminal side.

| Sequence | cell proliferation (without synthetic peptide set to 100) [%] | cell proliferation (cell proliferation without addition of any synthetic peptide set to 100) |
| --- | --- | --- |
| RRRRRRRRGG GLTAYFY (RRRRRRRRGGGLTAYFY) [#2-D-1-4-4A] | ≤ 20 | – |
| RRRRRRRRGGVVELRVPTDLTLLPGHLYMM [#6-A] | – | less than 40 |
| RRRRRRRRGGMWKGFILTVVELRVPTDLTL [#6] | – | less than 40 |
| RRRRRRRRGG GLTIAFY (RRRRRRRRGGGLTIAFY) [#2-D-1-4-5A] | ≤ 20 | – |
| RRRRRRRRGGVVELRVP [#6-A-2] | – | less than 40 |
| RRRRRRRRGG GLTIYFY (RRRRRRRRGGGLTIYFY) [#2-D-1-4] | – | less than 40 |
| RRRRRRRRGGQGLTIYFA [#2-D-1-1B] | – | less than 40 |
| RRRRRRRRGGDRDYKKFWAGLQGLTIYFYN [#2] | – | less than 40 |
| RRRRRRRRGGQGLTIYFY [#2-D-1-1] | – | less than 40 |
| RRRRRRRRGG GLTIYFA (RRRRRRRRGGGLTIYFA) [#2-D-1-4-7A] | ≤ 20 | – |
| RRRRRRRRGGFWAGLQGLTIYFYNSNRDFQ [#2-A] | – | less than 40 |
| RRRRRRRRGG ALTIYFY (RRRRRRRRGGALTIYFY) [#2-D-1-4-1A] | ≤ 20 | – |
| RRRRRRRRGGQGLTIY [#2-D-1-3] | – | less than 40 |
| RRRRRRRRGGQGLTIAFY [#2-D-1-1A] | – | less than 40 |
| RRRRRRRRGGGLTIYFYN [#2-D-1-2] | – | less than 40 |
| RRRRRRRRGGILTVVELRVP [#6-B] | – | less than 40 |
| RRRRRRRRGGQGLTIYFYNSNRDFQ [#2-C] | – | less than 40 |
| RRRRRRRRGGQGLTIYFYN [#2-D-1] | – | less than 40 |
| RRRRRRRRGGQGLTIYFYNSNR [#2-D] | – | less than 40 |
